These are yes or no findings as the source states them, for the method shown. Binding seen in cells or lysates may run through a third protein. A yes stands for co-enrichment or nearness to the bait. Other partners may have been found.
Biological target: Rpl16B (tagged YNL069C from the MORF collection) (S. cerevisiae) (UniProt P26785)
Experiment: affinity purification with mass spectrometry

Sequences of proteins named here, by UniProt entry; tags and fusion partners are left off.
UniProt P26785: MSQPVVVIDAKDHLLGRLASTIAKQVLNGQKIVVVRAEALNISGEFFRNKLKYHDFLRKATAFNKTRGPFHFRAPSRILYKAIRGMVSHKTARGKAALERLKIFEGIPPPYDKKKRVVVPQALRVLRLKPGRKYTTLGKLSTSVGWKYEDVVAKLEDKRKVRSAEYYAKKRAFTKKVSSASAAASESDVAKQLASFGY
UniProt P10664: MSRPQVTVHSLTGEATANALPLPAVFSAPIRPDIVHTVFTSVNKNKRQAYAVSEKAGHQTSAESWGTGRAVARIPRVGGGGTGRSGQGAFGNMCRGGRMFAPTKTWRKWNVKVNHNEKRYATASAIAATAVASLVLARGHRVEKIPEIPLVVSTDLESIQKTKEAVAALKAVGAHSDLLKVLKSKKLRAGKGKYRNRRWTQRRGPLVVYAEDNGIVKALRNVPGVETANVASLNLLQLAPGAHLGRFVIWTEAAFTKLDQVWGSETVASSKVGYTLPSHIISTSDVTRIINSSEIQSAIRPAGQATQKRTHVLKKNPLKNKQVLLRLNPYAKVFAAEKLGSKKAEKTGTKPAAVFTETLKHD

| Molecule | binding |
| --- | --- |
| Rpl4A (from UniProt P10664 1-362) | binds |
| Rpl33B (protein, UniProt P41056 1-107) MAESHRLYVKGKHLSYQRSKRVNNPNVSLIKIEGVATPQEAQFYLGKRIAYVYRASKEVRGSKIRVMWGKVTRTHGNSGVVRATFRNNLPAKTFGASVRIFLYPSNI | binds |
| Rpl14A (protein, UniProt P36105 1-138) MSTDSIVKASNWRLVEVGRVVLIKKGQSAGKLAAIVEIIDQKKVLIDGPKAGVPRQAINLGQVVLTPLTFALPRGARTATVSKKWAAAAVCEKWAASSWAKKIAQRERRAALTDFERFQVMVLRKQKRYTVKKALAKA | binds |

From paper doi:10.1101/2022.04.06.487405
